# These are yes or no findings as the source states them, for the method shown. Binding seen in cells or lysates may run through a third protein. These calls come from enrichment with a bait or labelling near it, and not all partners need be listed. Sequences can lack the tags named with a protein.
# Sequences of proteins named here, by UniProt entry; tags and fusion partners are left off.
# UniProt P62316: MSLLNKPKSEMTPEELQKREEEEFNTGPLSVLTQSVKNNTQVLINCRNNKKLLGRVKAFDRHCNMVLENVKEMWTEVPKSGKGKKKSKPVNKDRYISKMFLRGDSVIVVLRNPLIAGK
# UniProt P62304: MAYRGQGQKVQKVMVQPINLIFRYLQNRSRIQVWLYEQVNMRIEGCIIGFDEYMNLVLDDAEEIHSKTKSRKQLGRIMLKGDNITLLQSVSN
# UniProt P38919: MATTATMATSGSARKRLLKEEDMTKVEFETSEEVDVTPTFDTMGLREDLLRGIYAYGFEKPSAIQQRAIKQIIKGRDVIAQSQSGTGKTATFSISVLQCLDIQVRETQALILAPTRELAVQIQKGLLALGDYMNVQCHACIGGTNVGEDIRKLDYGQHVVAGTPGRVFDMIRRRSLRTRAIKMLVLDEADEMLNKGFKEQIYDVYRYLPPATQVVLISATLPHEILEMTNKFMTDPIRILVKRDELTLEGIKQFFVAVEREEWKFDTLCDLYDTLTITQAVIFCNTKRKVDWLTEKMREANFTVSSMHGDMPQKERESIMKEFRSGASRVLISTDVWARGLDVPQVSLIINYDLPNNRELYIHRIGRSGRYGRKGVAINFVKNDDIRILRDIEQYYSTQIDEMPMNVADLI
# UniProt O43143: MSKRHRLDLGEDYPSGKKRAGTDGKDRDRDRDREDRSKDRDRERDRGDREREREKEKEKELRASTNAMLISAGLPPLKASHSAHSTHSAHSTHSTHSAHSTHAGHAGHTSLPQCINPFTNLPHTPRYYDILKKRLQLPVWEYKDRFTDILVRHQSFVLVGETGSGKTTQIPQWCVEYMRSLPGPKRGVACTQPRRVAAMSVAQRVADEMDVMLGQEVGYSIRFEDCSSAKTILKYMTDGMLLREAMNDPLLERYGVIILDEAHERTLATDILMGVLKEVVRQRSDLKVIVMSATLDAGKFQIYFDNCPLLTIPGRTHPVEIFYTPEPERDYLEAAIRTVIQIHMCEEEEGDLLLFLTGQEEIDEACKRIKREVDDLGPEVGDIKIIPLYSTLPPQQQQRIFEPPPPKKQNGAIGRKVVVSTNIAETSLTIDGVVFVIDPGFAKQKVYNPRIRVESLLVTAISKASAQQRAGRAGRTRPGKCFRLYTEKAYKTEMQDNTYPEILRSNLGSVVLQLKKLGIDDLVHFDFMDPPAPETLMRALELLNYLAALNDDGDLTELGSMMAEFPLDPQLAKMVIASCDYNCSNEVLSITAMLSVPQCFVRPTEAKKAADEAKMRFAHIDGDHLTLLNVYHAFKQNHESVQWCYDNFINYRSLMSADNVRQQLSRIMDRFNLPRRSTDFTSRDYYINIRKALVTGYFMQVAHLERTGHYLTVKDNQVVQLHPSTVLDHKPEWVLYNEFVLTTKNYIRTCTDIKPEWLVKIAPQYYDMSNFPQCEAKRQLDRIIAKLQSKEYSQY
# UniProt P62318: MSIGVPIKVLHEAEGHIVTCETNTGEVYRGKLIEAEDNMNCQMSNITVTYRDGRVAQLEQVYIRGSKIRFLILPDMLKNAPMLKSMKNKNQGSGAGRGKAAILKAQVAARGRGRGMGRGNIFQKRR
# UniProt O75643: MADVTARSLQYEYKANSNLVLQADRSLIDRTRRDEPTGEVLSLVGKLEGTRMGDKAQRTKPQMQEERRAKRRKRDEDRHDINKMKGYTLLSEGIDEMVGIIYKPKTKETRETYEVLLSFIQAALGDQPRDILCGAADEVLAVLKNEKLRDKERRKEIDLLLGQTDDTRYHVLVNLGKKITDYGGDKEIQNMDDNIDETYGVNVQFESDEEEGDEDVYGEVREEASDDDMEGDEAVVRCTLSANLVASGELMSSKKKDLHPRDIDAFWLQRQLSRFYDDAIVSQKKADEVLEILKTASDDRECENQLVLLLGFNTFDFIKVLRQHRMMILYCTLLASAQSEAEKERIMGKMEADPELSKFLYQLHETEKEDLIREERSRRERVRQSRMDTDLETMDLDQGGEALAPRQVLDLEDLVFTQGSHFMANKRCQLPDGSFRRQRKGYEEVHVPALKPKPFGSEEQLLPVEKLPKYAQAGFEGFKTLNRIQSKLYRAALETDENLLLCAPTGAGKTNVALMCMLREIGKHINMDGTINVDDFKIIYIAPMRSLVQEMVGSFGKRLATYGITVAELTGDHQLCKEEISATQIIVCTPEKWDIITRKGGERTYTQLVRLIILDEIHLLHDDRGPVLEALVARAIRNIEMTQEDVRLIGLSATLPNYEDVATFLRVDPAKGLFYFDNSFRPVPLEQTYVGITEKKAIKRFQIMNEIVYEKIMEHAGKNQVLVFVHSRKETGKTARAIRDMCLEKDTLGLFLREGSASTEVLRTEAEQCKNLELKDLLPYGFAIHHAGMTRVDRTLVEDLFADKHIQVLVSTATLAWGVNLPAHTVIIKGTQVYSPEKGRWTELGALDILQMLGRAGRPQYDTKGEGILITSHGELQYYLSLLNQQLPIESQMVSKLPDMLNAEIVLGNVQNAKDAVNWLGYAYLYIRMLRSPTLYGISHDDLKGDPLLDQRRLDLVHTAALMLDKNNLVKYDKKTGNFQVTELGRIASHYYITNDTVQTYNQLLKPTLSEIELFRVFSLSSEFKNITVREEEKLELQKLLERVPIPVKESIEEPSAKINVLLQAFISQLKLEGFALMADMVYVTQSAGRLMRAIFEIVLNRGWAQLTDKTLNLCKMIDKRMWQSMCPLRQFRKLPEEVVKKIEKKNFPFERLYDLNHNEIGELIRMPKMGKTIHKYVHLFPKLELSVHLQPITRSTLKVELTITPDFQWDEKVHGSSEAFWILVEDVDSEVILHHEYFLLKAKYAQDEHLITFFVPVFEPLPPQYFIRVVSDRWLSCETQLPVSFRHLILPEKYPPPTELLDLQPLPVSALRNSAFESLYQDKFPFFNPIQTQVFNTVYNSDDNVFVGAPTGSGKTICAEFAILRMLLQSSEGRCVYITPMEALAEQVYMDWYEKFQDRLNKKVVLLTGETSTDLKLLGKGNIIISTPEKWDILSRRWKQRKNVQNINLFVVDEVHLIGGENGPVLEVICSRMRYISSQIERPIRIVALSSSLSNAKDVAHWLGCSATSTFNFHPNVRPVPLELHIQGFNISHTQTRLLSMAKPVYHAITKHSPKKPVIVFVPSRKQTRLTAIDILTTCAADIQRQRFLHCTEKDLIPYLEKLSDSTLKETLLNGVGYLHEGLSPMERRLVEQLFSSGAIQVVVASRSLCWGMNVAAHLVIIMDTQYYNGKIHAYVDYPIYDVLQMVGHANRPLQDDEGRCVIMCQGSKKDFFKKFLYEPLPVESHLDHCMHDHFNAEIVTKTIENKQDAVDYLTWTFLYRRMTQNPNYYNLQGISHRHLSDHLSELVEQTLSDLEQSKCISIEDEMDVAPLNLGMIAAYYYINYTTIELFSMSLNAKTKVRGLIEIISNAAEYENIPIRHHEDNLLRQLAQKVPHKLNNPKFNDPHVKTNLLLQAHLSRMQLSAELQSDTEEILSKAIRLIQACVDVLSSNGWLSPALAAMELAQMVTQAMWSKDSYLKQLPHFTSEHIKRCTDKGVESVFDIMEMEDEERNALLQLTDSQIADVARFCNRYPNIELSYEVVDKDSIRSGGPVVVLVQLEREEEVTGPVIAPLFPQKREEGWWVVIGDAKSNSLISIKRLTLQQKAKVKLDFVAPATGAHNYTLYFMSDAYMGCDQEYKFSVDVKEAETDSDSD
# UniProt P61326: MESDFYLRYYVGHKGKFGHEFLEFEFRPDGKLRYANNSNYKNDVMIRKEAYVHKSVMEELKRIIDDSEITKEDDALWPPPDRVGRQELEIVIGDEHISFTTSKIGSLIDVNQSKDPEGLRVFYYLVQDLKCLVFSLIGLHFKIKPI
# UniProt Q9UJV9: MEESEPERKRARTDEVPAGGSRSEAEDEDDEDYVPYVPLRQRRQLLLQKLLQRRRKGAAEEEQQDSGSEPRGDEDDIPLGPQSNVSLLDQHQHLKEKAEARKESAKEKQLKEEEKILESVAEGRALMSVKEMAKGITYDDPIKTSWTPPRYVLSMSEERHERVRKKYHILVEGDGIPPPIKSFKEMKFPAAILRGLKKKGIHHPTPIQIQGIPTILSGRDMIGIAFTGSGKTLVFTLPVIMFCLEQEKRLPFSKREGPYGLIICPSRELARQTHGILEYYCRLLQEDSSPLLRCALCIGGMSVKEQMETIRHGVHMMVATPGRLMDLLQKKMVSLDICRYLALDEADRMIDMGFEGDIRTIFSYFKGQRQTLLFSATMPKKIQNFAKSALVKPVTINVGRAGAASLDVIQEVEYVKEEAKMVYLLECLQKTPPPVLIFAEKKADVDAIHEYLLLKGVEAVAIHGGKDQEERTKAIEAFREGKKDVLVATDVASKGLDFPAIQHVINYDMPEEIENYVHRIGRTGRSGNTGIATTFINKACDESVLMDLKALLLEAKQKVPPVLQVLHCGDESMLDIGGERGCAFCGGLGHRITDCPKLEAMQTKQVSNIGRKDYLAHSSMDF
# T1: DHX34–GFP–FLAG (human (endogenous in HEK293T)) (UniProt Q14147)
# T1 sequence: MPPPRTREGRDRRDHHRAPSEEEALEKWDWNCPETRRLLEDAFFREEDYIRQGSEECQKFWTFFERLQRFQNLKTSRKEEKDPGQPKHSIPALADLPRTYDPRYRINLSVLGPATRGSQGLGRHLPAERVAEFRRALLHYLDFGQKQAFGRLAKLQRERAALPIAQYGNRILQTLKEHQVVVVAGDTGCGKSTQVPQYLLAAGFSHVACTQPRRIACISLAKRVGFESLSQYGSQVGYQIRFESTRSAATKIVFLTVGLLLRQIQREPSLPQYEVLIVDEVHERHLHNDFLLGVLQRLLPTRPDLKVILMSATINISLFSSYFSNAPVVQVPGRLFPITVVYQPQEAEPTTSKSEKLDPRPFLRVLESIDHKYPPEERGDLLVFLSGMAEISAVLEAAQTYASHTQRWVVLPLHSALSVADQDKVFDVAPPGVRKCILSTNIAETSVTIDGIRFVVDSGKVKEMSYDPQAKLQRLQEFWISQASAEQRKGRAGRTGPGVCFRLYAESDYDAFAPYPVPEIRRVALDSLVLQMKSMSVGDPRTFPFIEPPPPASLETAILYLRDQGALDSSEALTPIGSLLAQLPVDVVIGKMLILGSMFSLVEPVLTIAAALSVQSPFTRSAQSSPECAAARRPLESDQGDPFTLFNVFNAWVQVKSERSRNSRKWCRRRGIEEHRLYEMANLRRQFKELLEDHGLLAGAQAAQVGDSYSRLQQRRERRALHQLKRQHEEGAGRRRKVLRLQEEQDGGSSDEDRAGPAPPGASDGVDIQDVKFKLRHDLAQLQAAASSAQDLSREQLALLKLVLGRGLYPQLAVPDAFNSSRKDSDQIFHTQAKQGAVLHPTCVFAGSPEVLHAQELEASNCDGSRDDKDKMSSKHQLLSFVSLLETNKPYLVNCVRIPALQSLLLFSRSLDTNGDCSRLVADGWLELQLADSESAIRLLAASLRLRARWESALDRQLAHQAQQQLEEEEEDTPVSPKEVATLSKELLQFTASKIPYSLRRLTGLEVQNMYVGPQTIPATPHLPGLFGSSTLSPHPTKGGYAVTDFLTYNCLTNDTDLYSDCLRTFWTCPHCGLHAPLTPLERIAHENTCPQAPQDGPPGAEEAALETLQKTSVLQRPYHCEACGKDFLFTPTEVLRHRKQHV
# B1: DHX8/Prp22 (protein, UniProt Q14562 1-1220)
# chain: MAVAVAMAGALIGSEPGPAEELAKLEYLSLVSKVCTELDNHLGINDKDLAEFVISLAEKNTTFDTFKASLVKNGAEFTDSLISNLLRLIQTMRPPAKPSTSKDPVVKPKTEKEKLKELFPVLCQPDNPSVRTMLDEDDVKVAVDVLKELEALMPSAAGQEKQRDAEHRDRTKKKKRSRSRDRNRDRDRDRERNRDRDHKRRHRSRSRSRSRTRERNKVKSRYRSRSRSQSPPKDRKDRDKYGERNLDRWRDKHVDRPPPEEPTIGDIYNGKVTSIMQFGCFVQLEGLRKRWEGLVHISELRREGRVANVADVVSKGQRVKVKVLSFTGTKTSLSMKDVDQETGEDLNPNRRRNLVGETNEETSMRNPDRPTHLSLVSAPEVEDDSLERKRLTRISDPEKWEIKQMIAANVLSKEEFPDFDEETGILPKVDDEEDEDLEIELVEEEPPFLRGHTKQSMDMSPIKIVKNPDGSLSQAAMMQSALAKERRELKQAQREAEMDSIPMGLNKHWVDPLPDAEGRQIAANMRGIGMMPNDIPEWKKHAFGGNKASYGKKTQMSILEQRESLPIYKLKEQLVQAVHDNQILIVIGETGSGKTTQITQYLAEAGYTSRGKIGCTQPRRVAAMSVAKRVSEEFGCCLGQEVGYTIRFEDCTSPETVIKYMTDGMLLRECLIDPDLTQYAIIMLDEAHERTIHTDVLFGLLKKTVQKRQDMKLIVTSATLDAVKFSQYFYEAPIFTIPGRTYPVEILYTKEPETDYLDASLITVMQIHLTEPPGDILVFLTGQEEIDTACEILYERMKSLGPDVPELIILPVYSALPSEMQTRIFDPAPPGSRKVVIATNIAETSLTIDGIYYVVDPGFVKQKVYNSKTGIDQLVVTPISQAQAKQRAGRAGRTGPGKCYRLYTERAYRDEMLTTNVPEIQRTNLASTVLSLKAMGINDLLSFDFMDAPPMETLITAMEQLYTLGALDDEGLLTRLGRRMAEFPLEPMLCKMLIMSVHLGCSEEMLTIVSMLSVQNVFYRPKDKQALADQKKAKFHQTEGDHLTLLAVYNSWKNNKFSNPWCYENFIQARSLRRAQDIRKQMLGIMDRHKLDVVSCGKSTVRVQKAICSGFFRNAAKKDPQEGYRTLIDQQVVYIHPSSALFNRQPEWVVYHELVLTTKEYMREVTTIDPRWLVEFAPAFFKVSDPTKLSKQKKQQRLEPLYNRYEEPNAWRISRAFRRR
# B2: DHX38/Prp16 (protein, UniProt Q92620 1-1227)
# chain: MGDTSEDASIHRLEGTDLDCQVGGLICKSKSAASEQHVFKAPAPRPSLLGLDLLASLKRREREEKDDGEDKKKSKVSSYKDWEESKDDQKDAEEEGGDQAGQNIRKDRHYRSARVETPSHPGGVSEEFWERSRQRERERREHGVYASSKEEKDWKKEKSRDRDYDRKRDRDERDRSRHSSRSERDGGSERSSRRNEPESPRHRPKDAATPSRSTWEEEDSGYGSSRRSQWESPSPTPSYRDSERSHRLSTRDRDRSVRGKYSDDTPLPTPSYKYNEWADDRRHLGSTPRLSRGRGRREEGEEGISFDTEEERQQWEDDQRQADRDWYMMDEGYDEFHNPLAYSSEDYVRRREQHLHKQKQKRISAQRRQINEDNERWETNRMLTSGVVHRLEVDEDFEEDNAAKVHLMVHNLVPPFLDGRIVFTKQPEPVIPVKDATSDLAIIARKGSQTVRKHREQKERKKAQHKHWELAGTKLGDIMGVKKEEEPDKAVTEDGKVDYRTEQKFADHMKRKSEASSEFAKKKSILEQRQYLPIFAVQQELLTIIRDNSIVIVVGETGSGKTTQLTQYLHEDGYTDYGMIGCTQPRRVAAMSVAKRVSEEMGGNLGEEVGYAIRFEDCTSENTLIKYMTDGILLRESLREADLDHYSAIIMDEAHERSLNTDVLFGLLREVVARRSDLKLIVTSATMDAEKFAAFFGNVPIFHIPGRTFPVDILFSKTPQEDYVEAAVKQSLQVHLSGAPGDILIFMPGQEDIEVTSDQIVEHLEELENAPALAVLPIYSQLPSDLQAKIFQKAPDGVRKCIVATNIAETSLTVDGIMFVIDSGYCKLKVFNPRIGMDALQIYPISQANANQRSGRAGRTGPGQCFRLYTQSAYKNELLTTTVPEIQRTNLANVVLLLKSLGVQDLLQFHFMDPPPEDNMLNSMYQLWILGALDNTGGLTSTGRLMVEFPLDPALSKMLIVSCDMGCSSEILLIVSMLSVPAIFYRPKGREEESDQIREKFAVPESDHLTYLNVYLQWKNNNYSTIWCNDHFIHAKAMRKVREVRAQLKDIMVQQRMSLASCGTDWDIVRKCICAAYFHQAAKLKGIGEYVNIRTGMPCHLHPTSSLFGMGYTPDYIVYHELVMTTKEYMQCVTAVDGEWLAELGPMFYSVKQAGKSRQENRRRAKEEASAMEEEMALAEEQLRARRQEQEKRSPLGSVRSTKIYTPGRKEQGEPMTPRRTPARFGL
# B3: ISY1 (protein, UniProt Q9ULR0 1-285)
# chain: MARNAEKAMTALARFRQAQLEEGKVKERRPFLASECTELPKAEKWRRQIIGEISKKVAQIQNAGLGEFRIRDLNDEINKLLREKGHWEVRIKELGGPDYGKVGPKMLDHEGKEVPGNRGYKYFGAAKDLPGVRELFEKEPLPPPRKTRAELMKAIDFEYYGYLDEDDGVIVPLEQEYEKKLRAELVEKWKAEREARLARGEKEEEEEEEEEINIYAVTEEESDEEGSQEKGGDDSQQKFIAHVPVPSQQEIEEALVRRKKMELLQKYASETLQAQSEEARRLLGY
# B4: SNRNP40 (protein, UniProt Q96DI7 1-357)
# chain: MIEQQKRKGPELPLVPVKRQRHELLLGAGSGPGAGQQQATPGALLQAGPPRCSSLQAPIMLLSGHEGEVYCCKFHPNGSTLASAGFDRLILLWNVYGDCDNYATLKGHSGAVMELHYNTDGSMLFSASTDKTVAVWDSETGERVKRLKGHTSFVNSCYPARRGPQLVCTGSDDGTVKLWDIRKKAAIQTFQNTYQVLAVTFNDTSDQIISGGIDNDIKVWDLRQNKLTYTMRGHADSVTGLSLSSEGSYLLSNAMDNTVRVWDVRPFAPKERCVKIFQGNVHNFEKNLLRCSWSPDGSKIAAGSADRFVYVWDTTSRRILYKLPGHAGSINEVAFHPDEPIIISASSDKRLYMGEIQ
# B5: GPATCH1 (protein, UniProt Q9BRR8 1-931)
# chain: MAARDSDSEEDLVSYGTGLEPLEEGERPKKPIPLQDQTVRDEKGRYKRFHGAFSGGFSAGYFNTVGSKEGWTPSTFVSSRQNRADKSVLGPEDFMDEEDLSEFGIAPKAIVTTDDFASKTKDRIREKARQLAAATAPIPGATLLDDLITPAKLSVGFELLRKMGWKEGQGVGPRVKRRPRRQKPDPGVKIYGCALPPGSSEGSEGEDDDYLPDNVTFAPKDVTPVDFTPKDNVHGLAYKGLDPHQALFGTSGEHFNLFSGGSERAGDLGEIGLNKGRKLGISGQAFGVGALEEEDDDIYATETLSKYDTVLKDEEPGDGLYGWTAPRQYKNQKESEKDLRYVGKILDGFSLASKPLSSKKIYPPPELPRDYRPVHYFRPMVAATSENSHLLQVLSESAGKATPDPGTHSKHQLNASKRAELLGETPIQGSATSVLEFLSQKDKERIKEMKQATDLKAAQLKARSLAQNAQSSRAQLSPAAAAGHCSWNMALGGGTATLKASNFKPFAKDPEKQKRYDEFLVHMKQGQKDALERCLDPSMTEWERGRERDEFARAALLYASSHSTLSSRFTHAKEEDDSDQVEVPRDQENDVGDKQSAVKMKMFGKLTRDTFEWHPDKLLCKRFNVPDPYPDSTLVGLPRVKRDKYSVFNFLTLPETASLPTTQASSEKVSQHRGPDKSRKPSRWDTSKHEKKEDSISEFLSLARSKAEPPKQQSSPLVNKEEEHAPELSANQTVNKDVDAQAEGEGSRPSMDLFRAIFASSSDEKSSSSEDEQGDSEDDQAGSGEANFQSSQDTDLGETSSVAHALVPAPQEPPPSFPIQKMQIDEREEFGPRLPPVFCPNARQTLEVPQKEKHKKNKDKHKAKKEHRRKKEKKKKHRKHKHKGKQKNKKPEKSSSSESSDSSDSQSDEETADVSPQELLRRLKSLPLRRQ
# Molecular target: T1, DHX34–GFP–FLAG (human (endogenous in HEK293T))
# Test: affinity purification with mass spectrometry; anti-GFP antibody-coupled magnetic beads (ChromoTek) on lysates of three independent CRISPR DHX34–GFP–FLAG HEK293T clones (A5, A10, 1B3); cells lysed as in the immunoprecipitation protocol; IP buffer; KingFisher Duo robot; in-solution digestion; LFQ with MaxQuant
row,Molecule,binding
1,SNRPD2 (from UniProt P62316 1-118),binds
2,SNRNPE (from UniProt P62304 1-92),binds
3,eIF4A3 (from UniProt P38919 1-411),binds
4,DHX15/Prp43 (from UniProt O43143 1-795),binds
5,SNRPD3 (from UniProt P62318 1-126),binds
6,SNRNP200 (from UniProt O75643 1-2136),binds
7,MAGOH (from UniProt P61326 1-146),binds
8,DDX41 (from UniProt Q9UJV9 1-622),binds
9,B1,binds
10,B2,binds
11,B3,binds
12,B4,binds
13,B5,binds
